Results: PubChem BioAssay AID624415 (National Center for Advancing Translational Sciences (NCATS), 2012)
Hit rate of the full screen: of about 390,000 compounds, about 60 (0.02%) were called active. This list was built around the results that the source calls inconclusive (neither active nor inactive); the mix of calls is not that of the screen. Rule as the data show it: active = activity change below about -50%; inconclusive = between about -30% and that limit; inactive = weaker than that.

Protein sequences, listed by entry. Tags and fused reporters are not part of them.
UniProt Q9GZU1, whole entry, looked up: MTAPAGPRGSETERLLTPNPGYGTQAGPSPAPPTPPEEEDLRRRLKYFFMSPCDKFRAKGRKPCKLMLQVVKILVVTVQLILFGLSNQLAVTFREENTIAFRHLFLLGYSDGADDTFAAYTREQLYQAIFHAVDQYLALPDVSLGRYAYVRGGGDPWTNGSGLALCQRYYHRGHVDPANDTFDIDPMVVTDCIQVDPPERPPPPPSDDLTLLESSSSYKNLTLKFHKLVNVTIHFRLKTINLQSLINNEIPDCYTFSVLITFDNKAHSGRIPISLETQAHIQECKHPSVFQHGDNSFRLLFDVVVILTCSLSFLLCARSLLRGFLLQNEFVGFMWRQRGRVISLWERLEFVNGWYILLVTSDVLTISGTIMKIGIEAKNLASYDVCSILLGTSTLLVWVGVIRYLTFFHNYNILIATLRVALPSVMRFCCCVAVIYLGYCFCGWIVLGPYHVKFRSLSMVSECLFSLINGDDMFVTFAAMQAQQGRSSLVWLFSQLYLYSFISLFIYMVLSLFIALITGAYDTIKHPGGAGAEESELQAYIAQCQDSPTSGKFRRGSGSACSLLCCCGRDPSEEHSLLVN

Target: Mucolipin-1 (Homo sapiens) (UniProt Q9GZU1)
Assay: qHTS for Inhibitors of the Human Mucolipin Transient Receptor Potential 1 (TRPML1);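 also: stimulus is agonist 54-4 at its EC80 concentration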
Settings: TRPML1-inducible cells, Ca2+ dye fluorescence, FDSS; stronger effect = lower value; inhibition of EC80 agonist-evoked calcium signal
In short: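 Calcium fluorescence in TRPML1-DL cells induced overnight with Tet: a 110 s read after compound pin addition, then a 110 s antagonist read after challenge with 54-4 at 4 uM final (EC80).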
% is scaled to controls: 0 for no effect and ±100 for the full control effect.

Structure (SMILES) | activity change, negative = inhibition
CCCCN(c1nc2ccccc2nc1Cl)S(=O)(=O)c1ccc(C)cc1 | inactive: 18.5%
O=C(O)c1ccc(CNC(=O)c2ccc3c(c2)C(=O)N(Cc2cccnc2)C3=O)cc1 | inconclusive: -33.6%
CN1CCN(c2ccccc2/C=C2/C(=O)Nc3ccccc32)CC1 | inconclusive: -30.1%
Cc1ccc(CN2CC(C(=O)Nc3ccc(S(=O)(=O)Nc4cc(C)nc(C)n4)cc3)CC2=O)cc1 (centres undefined) | inconclusive: -30.4%
Cc1ccc(NC(=O)C23CCC(C)(C(=O)[C@H]2Br)C3(C)C)cc1 (some centres undefined) | inconclusive: -37.2%
COc1cc(/C=N/Nc2ccccn2)cc(OC)c1O | inconclusive: -40.6%
Cc1ccc(NC(=O)Cn2cnc([N+](=O)[O-])c2)cc1C | inactive: -6.83%
Cc1cc(N2CCN(C)CC2)nc2ccc(NC(=O)Nc3cccc(Cl)c3)cc12 | inconclusive: -32.1%
COc1ccc(Cl)cc1NC(=O)c1ccc2c(c1)CCN2S(C)(=O)=O | inconclusive: -30.5%
COc1cc(NC(=O)C/C(C)=N/NC(=O)Cc2ccccc2)c(OC)cc1Cl | inconclusive: -33.4%
CC(=O)c1ccc(NC(=S)NCc2ccc(Cl)cc2Cl)cc1 | inconclusive: -30.7%
O=c1ccc2c(-c3ccccc3)c3ccc(O)cc3oc-2c1 | inconclusive: -35.1%
Cc1nn2c(CN(C(=O)COc3ccccc3)c3ccccc3)nnc2c2ccccc12 | inactive: 0.203%
NC(=O)CSc1nc2c(oc3ccccc32)c(=O)n1Cc1ccccc1 | inconclusive: -34.9%
CC1CCCCN1Cc1cnc(Cl)s1 (centres undefined) | inconclusive: -30.7%
COc1ccc(CCNc2nc3cc(OC)c(OC)cc3c3nc(-c4ccccc4)nn23)cc1OC | inconclusive: -37.5%
Cc1nn(CCCC(=O)NCCc2ccccc2)c(=O)c2nn(-c3ccccc3)c(C)c12 | inconclusive: -37.4%
CC(C)(C)NC(=O)CN(C(=O)c1snc(C(=O)NC2CCCCC2)c1N)c1ccccc1F | inconclusive: -31.3%
Cc1cc(C)c(NC(=O)Cn2ncc3ccccc32)c(C)c1 | inconclusive: -36.5%
c1ccc(Cn2c(CNc3nc4ccccc4n3CCN3CCOCC3)nc3ccccc32)cc1 | inactive: 0.654%
C=CCc1ccccc1OCC(O)CNC (centres undefined) | inconclusive: -40.8%
CCc1ccc(NC(=O)CSc2nc3ccsc3c(=O)n2C(C)CC)cc1 (centres undefined) | inconclusive: -48.3%
COc1cccc(NC(=O)c2cc3c(=O)n(Cc4cccnc4)ccc3nc2C)c1 | inconclusive: -35%
COc1ccc(NS(=O)(=O)c2cc(NC(=O)CNC(=O)c3ccc(C)s3)ccc2Cl)cc1 | inconclusive: -43.8%

In a second layout: 2 of the compounds above.
Structure (SMILES)	activity change, negative = inhibition
c1ccc(Cn2c(CNc3nc4ccccc4n3CCN3CCOCC3)nc3ccccc32)cc1	inactive: 0.654%
C=CCc1ccccc1OCC(O)CNC (centres undefined)	inconclusive: -40.8%
